Source: article PMC6440744
Residue numbers refer to the chain shown, from its start. These are yes or no findings as the source states them, for the method shown. Binding seen in cells or lysates may run through a third protein.

What was measured:
Assay in all cases: pull-down; biotinylated His.TEV.Avi PTPRK, PTPRM or chimeric domains on streptavidin-coated magnetic beads; lysate of confluent, pervanadate-treated MCF10A cells, 1.5 hr at 4°C; immunoblot of inputs, supernatants and pull downs; only the target purified
[1] = target: T1, PTPRK ICD-D1057A (substrate-trapping mutant) (human) (UniProt Q15262)
T1 sequence (chain, biotin on the AviTag): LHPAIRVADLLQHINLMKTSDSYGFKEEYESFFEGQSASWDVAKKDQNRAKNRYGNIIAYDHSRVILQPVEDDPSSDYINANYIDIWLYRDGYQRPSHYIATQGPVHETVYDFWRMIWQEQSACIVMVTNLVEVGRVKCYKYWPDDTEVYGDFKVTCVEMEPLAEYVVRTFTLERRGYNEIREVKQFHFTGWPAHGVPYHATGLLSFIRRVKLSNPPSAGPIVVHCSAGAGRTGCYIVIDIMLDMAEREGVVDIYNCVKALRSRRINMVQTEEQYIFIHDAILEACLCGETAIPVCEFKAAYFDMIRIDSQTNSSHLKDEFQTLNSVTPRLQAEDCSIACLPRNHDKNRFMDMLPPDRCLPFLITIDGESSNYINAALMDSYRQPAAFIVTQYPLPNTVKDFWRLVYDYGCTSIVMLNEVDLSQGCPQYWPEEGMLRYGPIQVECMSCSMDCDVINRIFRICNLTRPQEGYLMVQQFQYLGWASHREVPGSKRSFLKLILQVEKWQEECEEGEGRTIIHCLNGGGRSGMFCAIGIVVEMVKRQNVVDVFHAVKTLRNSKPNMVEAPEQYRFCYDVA

[2] = target: T2, PTPRK ICD-C1089S (substrate-trapping mutant) (human) (UniProt Q15262)
T2 sequence (chain, biotin on the AviTag): T1 sequence (chain, biotin on the AviTag) with A194D, C226S

[3] = target: T3, PTPRK D2 pseudophosphatase domain (human) (UniProt Q15262)
T3 sequence (chain, biotin on the AviTag): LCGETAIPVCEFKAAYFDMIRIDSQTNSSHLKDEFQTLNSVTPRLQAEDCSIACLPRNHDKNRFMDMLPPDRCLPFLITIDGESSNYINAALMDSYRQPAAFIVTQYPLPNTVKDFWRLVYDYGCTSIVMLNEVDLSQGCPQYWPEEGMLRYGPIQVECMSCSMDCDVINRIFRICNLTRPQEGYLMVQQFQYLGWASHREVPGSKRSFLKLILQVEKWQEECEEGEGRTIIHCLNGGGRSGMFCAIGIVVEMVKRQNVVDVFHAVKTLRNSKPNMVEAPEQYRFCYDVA

Measured: binding

E-Cadherin (human (endogenous in MCF10A))
no binding: all assays above
